PubChem BioAssay AID652272, Drosophila RNAi Screening Center – 2013

- Test: 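Genes whose knock-down decreases or increases Hedgehog reporter output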 (primary screen)
- Cells: Drosophila clone 8 (Cl8) cells
- Reagent: long dsRNA against Drosophila genes
- Measured: 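Plate reader light from a firefly reporter under a ptc promoter fragment that responds to Hedgehog, with Renilla light as transfection reference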
- Direction: firefly Hh reporter signal: higher = more ptc reporter light; Renilla reference signal: higher = more Renilla control light
- Active means: 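Called a hit if the two-replicate mean z-score lies below -2 or above +3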
- Calls: active = hit: reporter lowered or raised; inactive = not a hit
The screen tested about 21,000 reagents; below is a random part of those with a known target gene and a result. In the full data, 503 (2.4%) got an active call. 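Raw plate light values, not normalised; calls rest on replicate z-scores that were not deposited; hits include reporter decreases as well as increases.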 The record does not give: the amount of reagent, the time to read-out.

| gene knocked down | amplicon | firefly Hh reporter signal, replicate 1 | firefly Hh reporter signal, replicate 2 | firefly Hh reporter signal, replicate 3 | Renilla reference signal, replicate 1 | Renilla reference signal, replicate 2 | Call |
| --- | --- | --- | --- | --- | --- | --- | --- |
| Alp1 | DRSC11781 | 95121 | 1.21e5 | – | 3888 | 4128 | inactive |
| CG14499 | DRSC06470 | 81812 | 60357 | – | 1973 | 4486 | inactive |
| CG6403 | DRSC16033 | 1.20e5 | 1.22e5 | – | 4949 | 3978 | inactive |
| CG8837 | DRSC00711 | 1.01e5 | 42997 | – | 2485 | 4652 | inactive |
| CG15649 | DRSC04240 | 1.10e5 | 75929 | – | 2806 | 7303 | inactive |
| CG4783 | DRSC15644 | 4.86e5 | 98160 | – | 4242 | 4242 | inactive |
| CG33796 | DRSC09417 | 2.36e5 | – | – | 4944 | – | inactive |
| brun | DRSC02706 | 1.02e5 | 46356 | – | 3465 | 1136 | inactive |
| CG5532 | DRSC04509 | 6.07e5 | 1.42e5 | – | 6293 | 6293 | inactive |
| Nop17l | DRSC06556 | 1.02e5 | 43776 | – | 4133 | 1924 | inactive |
| FucT6 | DRSC19848 | 74455 | 66282 | – | 2008 | 1590 | inactive |
| Wsck | DRSC13682 | 52307 | 1.74e5 | – | 12412 | 3969 | inactive |
| Rcd7 | DRSC10100 | 89474 | 1.05e5 | – | 3380 | 3153 | inactive |
| Cul4 | DRSC07243 | 70033 | 39274 | – | 3133 | 1557 | inactive |
| CG31913 | DRSC00892 | 4.89e5 | 1.43e5 | – | 24707 | 6587 | inactive |
| CG32280 | DRSC08024 | 97458 | 2.71e5 | – | 2777 | 10298 | inactive |
| CG11052 | DRSC14288 | 1.04e5 | 1.46e5 | – | 4604 | 4412 | inactive |
| CG16964 | DRSC02546 | 96512 | 63189 | – | 2137 | 4921 | inactive |
| CG1208 | DRSC12190 | 81827 | 44193 | – | 3996 | 2180 | inactive |
| CG5011 | DRSC00674 | 1.26e5 | 1.06e5 | – | 5077 | 4497 | inactive |
| Set2 | DRSC19765 | 90279 | 82385 | – | 1466 | 1274 | active |
| GluRIIC | DRSC00642 | 1.07e5 | 58480 | – | 4701 | 2853 | inactive |
| mms4 | DRSC06249 | 91298 | 43863 | – | 2482 | 4013 | inactive |
| CG10553 | DRSC14254 | 6.21e5 | 89129 | – | 41536 | 3126 | inactive |
| Sbat | DRSC00160 | 5.24e5 | 1.81e5 | – | 24545 | 7442 | inactive |
| capt | DRSC00676 | 1.03e5 | 77520 | – | 2424 | 2176 | inactive |
| capt | DRSC00806 | 1.26e5 | 99037 | – | 2610 | 2416 | inactive |
| Obp19c | DRSC20528 | 52044 | 1.40e5 | – | 1109 | 8076 | inactive |
| CG17687 | DRSC10279 | 34024 | 38657 | 58252 | 4109 | 4401 | inactive |
| Naam | DRSC16252 | 1.05e6 | 1.96e5 | – | 46963 | 5905 | inactive |
| CG3277 | DRSC00588 | 1.10e5 | 64548 | – | 3081 | 6789 | inactive |
| COX7A | DRSC16514 | 86528 | 1.54e5 | – | 2956 | 3308 | inactive |
| Mur89F | DRSC15544 | 75408 | 64433 | – | 1975 | 4817 | inactive |
| CG12506 | DRSC00347 | 72483 | 58490 | – | 1723 | 1545 | inactive |
| Arpc1 | DRSC03438 | 65352 | 59677 | – | 3568 | 2838 | inactive |
| Kebab | DRSC00827 | 1.48e5 | 1.22e5 | – | 6756 | 4967 | inactive |
| Nepl6 | DRSC03242 | 4.97e5 | 88020 | – | 4173 | 4173 | inactive |
| CG13837 | DRSC14687 | 5.88e5 | 1.28e5 | – | 28375 | 3739 | inactive |
| CG9257 | DRSC03173 | 66117 | 50405 | – | 1814 | 4506 | inactive |
| CG15177 | DRSC12557 | 56221 | 78374 | – | 2345 | 2393 | inactive |
| Irk3 | DRSC02047 | 81159 | 60967 | – | 1848 | 5401 | inactive |
| CG43897 | DRSC10173 | 69462 | 59462 | 46881 | 3827 | 2202 | active |
| CG43897 | DRSC10965 | 36535 | 21537 | 23805 | 3015 | 1561 | inactive |
| CG43897 | DRSC10967 | 33697 | 56336 | 79574 | 5785 | 5280 | inactive |
| Sgf29 | DRSC04076 | 74490 | 41732 | – | 3345 | 2090 | inactive |
| CG10051 | DRSC05959 | 80637 | 73001 | – | 2474 | 6040 | inactive |
| Osi10b | DRSC12279 | 70073 | 97528 | – | 2867 | 2765 | inactive |
| CG46298 | DRSC06222 | 1.13e5 | 42259 | – | 2436 | 4033 | inactive |
| ncm | DRSC02179 | 11141 | 35959 | – | 825 | 2195 | active |
| Cyp4d1 | DRSC17694 | 4.55e5 | 1.49e5 | – | 24756 | 3456 | inactive |
| Cyp4d1 | DRSC18456 | 1.02e5 | 2.87e5 | – | 3685 | 10262 | inactive |
| M1BP | DRSC16566 | 90902 | 63320 | – | 4742 | 3012 | inactive |
| CG1812 | DRSC20557 | 1.45e5 | 1.40e5 | – | 3554 | 3818 | inactive |
| Slc25A46b | DRSC02888 | 90067 | 62592 | – | 2418 | 4897 | inactive |
| fon | DRSC02507 | 74267 | 79173 | – | 3491 | 3317 | inactive |
| GlcAT-I | DRSC17307 | 4.22e5 | 1.34e5 | – | 21418 | 2794 | inactive |
| CG9631 | DRSC14137 | 89084 | 93306 | – | 3762 | 3405 | inactive |

Records listed so far whose gene name starts with N or n:
| gene knocked down | amplicon | firefly Hh reporter signal, replicate 1 | firefly Hh reporter signal, replicate 2 | firefly Hh reporter signal, replicate 3 | Renilla reference signal, replicate 1 | Renilla reference signal, replicate 2 | Call |
| --- | --- | --- | --- | --- | --- | --- | --- |
| Nop17l | DRSC06556 | 1.02e5 | 43776 | – | 4133 | 1924 | inactive |
| Naam | DRSC16252 | 1.05e6 | 1.96e5 | – | 46963 | 5905 | inactive |
| Nepl6 | DRSC03242 | 4.97e5 | 88020 | – | 4173 | 4173 | inactive |
| ncm | DRSC02179 | 11141 | 35959 | – | 825 | 2195 | active |
